PubChem BioAssay AID504793 | Drosophila RNAi Screening Center, 2011
Test: 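Whole-genome screen for parts of the DNA damage checkpoint at G2/M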 (primary screen). Cells: Drosophila S2R+ cells. Reagent: long dsRNA against Drosophila genes, about 0.25 µg dsRNA per well. Duration: 4 days of dsRNA, then 4 hours of drug before read-out. Treatment: doxorubicin 0.5 µM for 4 hours to cause double-strand breaks, in cells also given a low, harmless dose of dsRNA against nbs to sensitise the assay. Measurement: 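Per-well count of mitotic cells stained for phospho-histone H3 after doxorubicin exposure, used as mitotic index; counts are raw and not normalised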. Reading the numbers: mitotic cells: higher = more cells in mitosis, weaker G2 arrest. Call rule: 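a call needs confirmation in secondary tests, with other dsRNAs and a check of mitotic timing without damage, not just a high primary count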. Calls: active = confirmed in follow-up tests; inactive = not confirmed.
The deposit covers about 23,000 reagents; shown is a random part of those that have a named target and a result. Of all reagents, 62 (0.27%) are marked active. 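Calls come from follow-up tests whose scores are not deposited, so confirmed genes may have low counts here; counts are not normalised per plate.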 Raw values vary from plate to plate and are shown uncorrected. Entries without a mark were called inactive. Reagents against one gene are numbered here. Names joined by + are all predicted targets of the reagent.

no.	gene	reagent no.	mitotic cells, replicate 1
1	LManII (Lysosomal alpha-mannosidase II)	1	6
2	Nxf3 (Nuclear export factor 3)	1	15
3	CG12483	1	6
4	slif (slimfast)	1	8
5	slif (slimfast)	2	4
6	CG9962	1	4
7	CG9962	2	5
8	Tl (Toll)	1	5
9	CG13380 + CG4174	1	12
10	CG13380 + CG4174	2	6
11	Rbbp5 + CG6434 (retired record)	1	3
12	Hasp (Hig-anchoring scaffold protein)	1	2
13	CG14985	1	8
14	LysS (Lysozyme S)	1	4
15	LysS (Lysozyme S)	2	10
16	CG14280	1	7
17	CG3649	1	7
18	CG3649	2	8
19	tex	1	8
20	T3dh + pgc	1	9
21	CG4278	1	9
22	CG4951	1	6
23	CG17028	1	5
24	CG17028	2	6
25	msps (mini spindles)	1	9
26	Dolk (Dolichol kinase)	1	4
27	CG34164 + RpL7-like	1	4
28	DIP1 (DISCO Interacting Protein 1)	1	11
29	DIP1 (DISCO Interacting Protein 1)	2	11
30	CG4956	1	10
31	CG4956	2	4
32	CG30398	1	9
33	BicC (Bicaudal C)	1	4
34	BicC (Bicaudal C)	2	5
35	CG4230	1	7
36	CG9631	1	4
37	Top3alpha (Topoisomerase 3alpha)	1	7
38	gb (genderblind)	1	6
39	gb (genderblind)	2	7
40	CG1602	1	3
41	Or22c (Odorant receptor 22c)	1	5
42	Or22c (Odorant receptor 22c)	2	7
43	CG32107	1	39
44	InR (Insulin-like receptor)	1	5
45	InR (Insulin-like receptor)	2	9
46	Sting	1	8
47	Sting	2	5
48	jbug (jitterbug)	1	6
49	jbug (jitterbug)	2	5
50	jbug (jitterbug)	3	10
51	jbug (jitterbug)	4	6
52	jbug (jitterbug)	5	12
53	CG14115	1	9
54	HipHop (HP1-HOAP-interacting protein)	1	7
55	TfAP-2 (Transcription factor AP-2)	1	8
56	CG8892	1	3
57	CG6125	1	3
58	BomBc2 (Bomanin Bicipital 2)	1	2
59	BomBc2 (Bomanin Bicipital 2)	2	12
60	Gbeta76C (G protein beta subunit 76C)	1	9
61	CG10175	1	14
62	CG10175	2	7
63	CG10175	3	8
64	Ugt316A1 (UDP-glycosyltransferase family 316 member A1)	1	5
65	E2f1 (E2F transcription factor 1)	1	5
66	E2f1 (E2F transcription factor 1)	2	6
67	CG30002	1	1
68	CG30002	2	14
69	CG14989	1	9
70	CG14989	2	12
71	CG1648	1	4
72	CG1648	2	6
73	Dp (DP transcription factor)	1	9
74	Ir11a (Ionotropic receptor 11a)	1	12
75	NimA (Nimrod A)	1	8
76	NimA (Nimrod A)	2	5
77	NimA (Nimrod A)	3	8
78	NimA (Nimrod A)	4	5
79	CG1637	1	4
80	CG1637	2	7
81	CG1637	3	6
82	CG1637	4	4
83	Socs16D (Suppressor of Cytokine Signaling at 16D)	1	15
84	Socs16D (Suppressor of Cytokine Signaling at 16D)	2	9
85	CG1314	1	6
86	CG12522	1	9
87	CG12522	2	7
88	CG3213	1	5
89	CG3213	2	5
90	CG30158	1	3
91	CG30158	2	3
92	CG30158	3	7
93	CG30158	4	7
94	Or85a (Odorant receptor 85a)	1	6
95	CG9330	1	9
96	CG9330	2	2
97	CG18508	1	13
98	CG18508	2	13
99	Atg16 (Autophagy-related 16)	1	4
100	Atg16 (Autophagy-related 16)	2	13
101	Atg16 (Autophagy-related 16)	3	10
102	Gen (XPG-like endonuclease)	1	3
103	CG33969	1	8
104	CG1941	1	7
105	Cpr64Ab (Cuticular protein 64Ab)	1	5
106	Cpr64Ab (Cuticular protein 64Ab)	2	6
107	CG32628 (retired record)	1	6
108	sif (still life)	1	7
109	sif (still life)	2	4
110	sif (still life)	3	10
111	sif (still life)	4	3
112	sif (still life)	5	9

11 consecutive reagents from above:
no.	gene	reagent no.	mitotic cells, replicate 1
71	CG1648	1	4
72	CG1648	2	6
73	Dp (DP transcription factor)	1	9
74	Ir11a (Ionotropic receptor 11a)	1	12
75	NimA (Nimrod A)	1	8
76	NimA (Nimrod A)	2	5
77	NimA (Nimrod A)	3	8
78	NimA (Nimrod A)	4	5
79	CG1637	1	4
80	CG1637	2	7
81	CG1637	3	6
